Laboratory results from publication PMC10163288.
The list shows a part of the results.

B1: il2ra_site2_3nfp_normal_mot_0e529dd47276c7fc43eae82927e5780b_0001_af2_000000030_0001_35_48_H_._1ca096cc36b46ebbf1faa9362c3fa206_0001_1_0001_0000100002_0000001_0 … (protein)
chain: PLLELRLEALEKGDPDLRRLLFELRFLAQERGIPPEEIEELLERIQEELNVPPEEAIEILIKELK
B2: il2ra_site1_3nfp_sap_13_mot_311205a5f7018ed2e03f51fd3ffd5b95_0001_af2_000000228_0001_32_48_H_._c607dfab87a151aea9e7d1f821f406b9_0001_0001_0000200009_0000001_1_0 … (protein)
chain: SSDEFFERLVERVTKLAEEKNDEEVEELAKRALELFKEAEENRDSEAAHEAIRIVARLQLLVSSS
B3: il2ra_site2_2erj_normal_mot_HHH_b1_05749_af2_000000086_0001_23_39_H_._HHH_b2_03852_af2_0001_0000600008_0000001_0 (protein)
chain: SSSSSDEVEEEVRRLLEEARHIPDLREAYRLAVEALHIASKGNSDEALELVHKWLEEQGSSSSSS
B4: il2ra_site2_3nfp_sap_30_mot_HHH_b1_04264_000000089_0001_1_18_H_._HHH_b1_06009_0001_0000200018_0000001_0_0001_af2pred_0001_1_af2pred_swapped (protein)
chain: SSSSDEERQEVEELLKEIERALEEGDEELAEELIKRALLLAIEARDHELLLAVLRLLEKLKSSSS
B5: il2ra_site1_3nfp_sap_7_mot_HHH_b2_04441_af2_000000141_0001_1_20_H_._HHH_b2_07342_af2_0001_0000100004_0000001_1_0001_af2pred_0001_af2pred (protein)
chain: SSSSTDISRRFSELAQEVLKLLKEGDREEAEELLEELERLAREANDPAAKILVERLERALGSSSS
B6: il2ra_site1_3nfp_sap_17_mot_HHH_b1_07673_000000131_0001_39_57_H_._HHH_b1_03075_af2_0001_0000300009_0000001_0_0001_af2pred_0001_af2pred_1_swapped (protein)
chain: DERLVEELVRIAVEQNSPRLLKKILEELERFSGDPEEAKEILRELLERVLGDPEKVEELLELAEE
B7: il2ra_site1_2b5i_normal_mot_2cbe48e66a1f39b3fed734b245ab0a04_0001_000000015_0001_17_31_H_._HHH_b1_03181_0001_0000200007_0000001_0 (protein)
chain: SSSSSDEEEIREEVEELLEQAKRIEDPHENVRVLFRAAAIAWQGKNPELRELVERVAKELSSSSS
B8: il2ra_site2_2erj_sap_20_mot_HHH_b1_01197_000000128_0001_38_49_H_._HHH_b1_03800_0001_0000200005_0000001_0_0001 (protein)
chain: SSSSDEEEERIEELAEEAKRISDLHEVYELLNEMTRIASEANNQELVELVAKLFEEIAKAFSSSS
B9: il2ra_site2_2erj_normal_mot_HHH_b2_06646_af2_000000081_0001_19_36_H_._HHH_b1_01565_af2_0001_0000200025_0000001_0 (protein)
chain: SSSSDEEEEELRKFVEQLVEKFNLDEEFKRRLEESLELALEAGSSPELIRRYLELVAERVSSSSS
B10: il2ra_site2_3nfp_sap_21_mot_HHH_b1_04032_000000208_0001_43_56_H_._HHH_b1_00660_af2_0001_0000600013_0000001_0_0001 (protein)
chain: SSSSSREERLNEEAEHAIRAALERGDKERAELALKLLKAHALVANDPELERLVEELEELLNSSSS
B11: il2ra_site1_3nfp_sap_11_mot_01923d483164837742cf829bee572cc5_0001_af2_000000153_0001_17_30_H_._HHH_b2_08220_af2_0001_0000100001_0000001_1_0001 (protein)
chain: HSMIRLTKRVQRLVPPELLQLLYEIMELNARGNPEEARELIEELRELLEELGNPEAAELVEKALR
B12: il2ra_site1_3nfp_sap_17_mot_HHH_b1_01231_af2_000000170_0001_1_16_H_._HHH_b1_01666_0001_0000200012_0000001_1_0001_af2pred_0001_af2pred_1 (protein)
chain: SLLEKLQELAERTNDPELRAVIRLVENAIRISNTPPEEALELLLEDLRRAGDPEAVRIVEEVLER
B13: il2ra_site2_3nfp_sap_20_mot_HHH_b1_03818_000000217_0001_1_20_H_._HHH_b2_08227_af2_0001_0000600024_0000001_0_0001 (protein)
chain: SSSSDEEEVERLLEEAQELIRQGNPREALEALAEAAHIAFENNNSELFARIAEVLLELAKLSSSS
B14: il2ra_site2_2erj_normal_mot_ems_p1-15H-GBL-16H-GABBL-16H_0222_0001_0001_0002_000000105_0001_1_16_H_._HHH_b1_00778_0001_0000700027_0000001_0 (protein)
chain: SSSDKEEAEELYEQAKELLERGNPEEALKVLLKASQLAFESGDEELFSLLAELAHLIAREGSSSS
B15: il2ra_site2_3nfp_sap_26_mot_HHH_b1_05331_af2_000000251_0001_22_38_H_._HHH_b1_04986_0001_0000400006_0000001_0_0001_af2pred_0001_af2pred (protein)
chain: SSSSDVEERIEELLRQVEELIEKGDPEEAEKLLREAALLAVENNDFEAFALVLNLREKLHSSSSS
B16: il2ra_site2_2erj_sap_5_mot_HHH_b1_07788_af2_000000168_0001_1_20_H_._HHH_b1_03903_0001_0000100003_0000001_0_0001 (protein)
chain: SSSSSAVEELAEALIRTLEKEGDPESAERVEELLEELREKGDPRVEEELARLIWELLRERFSSSS
B17: il2ra_site2_2erj_sap_30_mot_HHH_b2_06851_000000004_0001_39_52_H_._30a957c732f18e89bfa64a8137c0e7c2_0001_1_0001_0000200007_0000001_0_0001 (protein)
chain: SSSSSELRRLYELAVEIAHALARGDEEETRKAIEEAEELAEELDSENAKEILEQLERLVNSSSSS
B18: il2ra_site1_1z92_sap_14_mot_1314d61ee722589b4fd511cf1ceb5c8f_0001_000000256_0001_17_32_H_._HHH_b1_00763_af2_0001_0000600105_0000001_0_0001_af2pred_0001_af2pred_ … (protein)
chain: SSSSDEEEELVRKIVEEYGGDEAVERDAERFARFAKEKGVSEESIEKNLRRVVEIAVRIDNSSSS

target: il2ra, P01589; test: yeast display titration

Apparent Kd, inactive:
B1 no binding seen
B2 no binding seen
B3 no binding seen
B4 no binding seen
B5 no binding seen
B6 no binding seen
B7 no binding seen
B8 no binding seen
B9 no binding seen
B10 no binding seen
B11 no binding seen
B12 no binding seen
B13 no binding seen
B14 no binding seen
B15 no binding seen
B16 no binding seen
B17 no binding seen
B18 no binding seen

Already shown: entries from further up.
Apparent Kd, inactive:
B2 no binding seen
B3 no binding seen
B4 no binding seen
